About 6,500 (11%) of roughly 59,000 compounds were called active. The shares of active, inactive and inconclusive entries below differ from those in the screen. No stated cut-off is given here; in the data, active means max dye-equivalent concentration above about 10 nM; inconclusive means mostly about 1.1 nM to 9.6 nM; inactive means weaker than that. The source holds several records for some structures; these can differ, active in one and inactive in another.
Test: qHTS Assay for Spectroscopic Profiling in A350 Spectral Region
Details: Compound autofluorescence, 340/450 nm, Alexa 350 dye-equivalents; stronger effect = higher value
With `CCOC(=O)CSC1=C(C#N)C(c2ccc(F)cc2)C(C(C)=O)=C(C)N1` (stereo not given) the max dye-equivalent concentration was inconclusive: 4.7 nM. For `COc1ccc(-c2nnn(CC(=O)N(CC(=O)NC3CCCC3)c3cccc(C)c3)n2)cc1OC`, the max dye-equivalent concentration was “inactive”. For `Cc1nc2cc(N3CCOCC3)c(NC(=O)C3CC3)cc2c(=O)n1Cc1ccccc1`, the max dye-equivalent concentration was inconclusive: 1.2 nM. For `O=c1oc2c(CN3CCCCC3)c(O)ccc2cc1-c1nc2ccccc2[nH]1`, the max dye-equivalent concentration was active: 2100 nM. In the case of `COC(=O)Cc1n[nH]c(=S)[nH]c1=O`, the max dye-equivalent concentration was “inactive”. With `CC(C)c1ccc(-c2nc3c([nH]2)c(=O)n(C)c(=O)n3C)cc1` the max dye-equivalent concentration was inconclusive: 1.1 nM. For `COC(=O)Nc1nc2ccc(C(=O)c3ccccc3)cc2[nH]1`, the max dye-equivalent concentration was “inactive”. For `CCOC(=O)c1cc2c(n(-c3ccccc3)c1=O)CC(C)(C)CC2=O`, the max dye-equivalent concentration was inconclusive: 3.2 nM. For `c1ccc(Cc2nn3c(Cn4nnc5ccccc54)nnc3s2)cc1`, the max dye-equivalent concentration was active: 16 nM. In the case of `COc1ccc(OC)c(C(=O)CSc2nc3ncccc3[nH]2)c1`, the max dye-equivalent concentration was inconclusive: 6.7 nM. For `Cc1cc(NC(=O)CSc2ccc(-c3nc4cc(C)c(C)cc4[nH]3)cn2)no1`, the max dye-equivalent concentration was active: 80 nM. For `FC(F)(F)c1ccc(N2CCOCC2)c(Nc2nc3ccccc3n3cnnc23)c1`, the max dye-equivalent concentration was inconclusive: 1.9 nM. With `COc1ccc(-c2nn(-c3ccccc3)cc2C(=O)Nc2nc(CC(C)=O)ns2)cc1` the max dye-equivalent concentration was “inactive”. With `N=C(N)c1ccc(OCCCCCOc2ccc(C(=N)N)cc2)cc1` the max dye-equivalent concentration was inconclusive: 2.5 nM. For `O=C1c2ccccc2NC2(CCCCC2)N1c1ccc(O)cc1`, the max dye-equivalent concentration was active: 380 nM. With `CS(=O)(=O)N1CCN(c2ccccc2NC(=O)c2ccc(-c3ccc(Cl)cc3Cl)o2)CC1` the max dye-equivalent concentration was active: 25 nM. With `CC(C)CN(C(=O)COC(=O)Cc1c[nH]c2ccccc12)C1CCS(=O)(=O)C1` (stereo not given) the max dye-equivalent concentration was inconclusive: 1.2 nM. In the case of `O=c1cc(-c2ccccc2O)oc2c(O)c(O)ccc12`, the max dye-equivalent concentration was “inactive”. With `COc1cccc2c3c(c(C)nc12)CC(C)O3` (stereo not given) the max dye-equivalent concentration was active: 73 nM. For `COc1cccc(-c2noc(CCC(=O)Nc3cccnc3)n2)c1`, the max dye-equivalent concentration was inconclusive: 1.9 nM. With `CCCC(=O)Nc1ccc(C(=O)n2nnc3ccccc32)cc1` the max dye-equivalent concentration was inconclusive: 2.3 nM. For `COc1cccc(-c2nccc(NCc3cccs3)n2)c1`, the max dye-equivalent concentration was “inactive”. With `Cc1nnc(SCCn2c(N3CC(C)CC(C)C3)nc3c2c(=O)[nH]c(=O)n3C)s1` (stereo not given) the max dye-equivalent concentration was inconclusive: 2.5 nM. For `C=C1CCO[C@@]2([C@H](O)[C@@](C)(O)CO)NC(=O)[C@]1(O)NC2=O`, the max dye-equivalent concentration was “inactive”. For `COc1ccc(NC(=O)CSc2nc3c(cc2C#N)CN(C)CC3)cc1`, the max dye-equivalent concentration was inconclusive: 1.1 nM. With `CCCC(=O)NCCc1cc2cc(C)c(C)cc2[nH]c1=O` the max dye-equivalent concentration was inconclusive: 2.6 nM. For `COC(=O)c1c[nH]n2c(=O)c(Cc3ccc(F)cc3Cl)c(C)nc12`, the max dye-equivalent concentration was “inactive”. In the case of `COC(=O)C1=C(C)NC(C)=C(C(=O)OC)C1c1ccc(N(C)C)cc1`, the max dye-equivalent concentration was active: 12 nM. For `CC(=O)c1cc(OC(=O)N2CCOCC2)ccc1OC(=O)N1CCOCC1`, the max dye-equivalent concentration was inconclusive: 1.2 nM. For `Cn1cnc2c(NCc3ccccc3)nc(NCCO)nc21`, the max dye-equivalent concentration was inconclusive: 1.3 nM. For `CCOC(=O)c1cccc(NC(=O)CN2C(=O)C3C4C=CC(C4)C3C2=O)c1` (stereo not given), the max dye-equivalent concentration was “inactive”. With `CC(C)c1nc2oc3c(NCC4CCCO4)ncnc3c2c2c1COC(C)(C)C2` (stereo not given) the max dye-equivalent concentration was inconclusive: 1.3 nM. For `O=C(c1cc(C(F)(F)F)cc(C(F)(F)F)c1)N1CCC2(CC1)CN(c1ccccn1)C2`, the max dye-equivalent concentration was “inactive”. In the case of `OCCOCCN1CCN([C@@H](c2ccccc2)c2ccc(Cl)cc2)CC1`, the max dye-equivalent concentration was “inactive”. For `NCc1ccc(-c2nc3ccccc3o2)cc1`, the max dye-equivalent concentration was “inactive”. With `CC1=C(C(=O)OC(C)C)C(C)NC(=O)N1` (stereo not given) the max dye-equivalent concentration was “inactive”. In the case of `COCCn1nnnc1C(C(C)C)N(Cc1ccccc1)Cc1cc2cc(OC)ccc2[nH]c1=O` (stereo not given), the max dye-equivalent concentration was active: 31 nM. In the case of `CCC(Sc1ncccc1C(=O)O)C(=O)N1CCCC1` (stereo not given), the max dye-equivalent concentration was inconclusive: 1.6 nM. In the case of `CCOC(=O)c1sc(-c2ccccc2)cc1NC(=O)CSc1nnnn1C`, the max dye-equivalent concentration was active: 11 nM. For `CN(C)Cc1cc(C(C)(C)C)cc(CNC2CCCCC2)c1O`, the max dye-equivalent concentration was “inactive”. With `Nc1c(OCC(=O)O)ccc2cc(S(=O)(=O)O)ccc12` the max dye-equivalent concentration was inconclusive: 4.8 nM. In the case of `Cc1[nH]c2ccccc2c1C(O)CN1CCN(c2cccc(C(F)(F)F)c2)CC1` (stereo not given), the max dye-equivalent concentration was “inactive”. In the case of `CCN(Cc1cc(Cl)cc(C)c1O)Cc1c(O)ccc2ccccc12`, the max dye-equivalent concentration was inconclusive: 3.9 nM. In the case of `COc1cccc(Nc2ncc(C(=O)O)c3ccccc23)c1`, the max dye-equivalent concentration was inconclusive: 1.2 nM. For `COc1ccc(C(=O)N2CCC[C@@]3(CCN(c4ccccn4)C3)C2)cc1`, the max dye-equivalent concentration was “inactive”. For `CCO/C=C1/C(=O)N(CC)c2ccccc21`, the max dye-equivalent concentration was inconclusive: 9.5 nM. For `CCn1cc(C(=O)O)c(=O)c2cc(S(=O)(=O)N(C)C)ccc21`, the max dye-equivalent concentration was inconclusive: 1.5 nM. For `c1cncc(-c2cc(-c3cc(-c4cccnc4)n[nH]3)[nH]n2)c1`, the max dye-equivalent concentration was “inactive”. For `c1ccc(-c2oc3ncnc(NCCN4CCOCC4)c3c2-c2ccccc2)cc1`, the max dye-equivalent concentration was “inactive”. For `CCN1/C(=C/C(=O)c2ccco2)Sc2ccccc21`, the max dye-equivalent concentration was active: 30 nM. In the case of `O=C(CCCOc1ccc(Cl)cc1Cl)NCCCO`, the max dye-equivalent concentration was active: 42 nM. In the case of `CN1C(=O)C2(Nc3ccccc3-c3nc4ccccc4n32)c2ccccc21` (stereo not given), the max dye-equivalent concentration was inconclusive: 3.9 nM. With `COc1cc(NC(=O)c2ccco2)c(OC)cc1NC(=O)CCC(=O)Nc1cc(C)ccc1C` the max dye-equivalent concentration was inconclusive: 9.9 nM. In the case of `CCN(CC)C(=O)c1sc2nc(-c3ccccn3)[nH]c(=O)c2c1C`, the max dye-equivalent concentration was active: 37 nM. For `CC1(C)C(c2cccs2)=NC(c2ccccc2)N1O` (stereo not given), the max dye-equivalent concentration was inconclusive: 1.8 nM. In the case of `CN(C)CC(O)COc1ccc(-c2ccc(C#N)cc2)cc1` (stereo not given), the max dye-equivalent concentration was inconclusive: 4.6 nM. In the case of `O=C1CC(c2ccco2)CC2=C1C(c1ccccc1)n1nc(C(F)(F)F)nc1N2` (stereo not given), the max dye-equivalent concentration was active: 560 nM. In the case of `Cc1nn(-c2ccc(C(=O)O)cc2)c(N)c1-c1ccccc1`, the max dye-equivalent concentration was “inactive”. For `C=C1C(=O)O[C@@H]2[C@@H]1CC/C(C)=C\CC[C@@]1(C)O[C@H]21`, the max dye-equivalent concentration was inconclusive: 6.3 nM. With `O=C(/C=C\c1ccc(O)c(O)c1)OCCc1ccccc1` the max dye-equivalent concentration was inconclusive: 4.3 nM. In the case of `O=C1NC(c2cccs2)Nc2ccccc21` (stereo not given), the max dye-equivalent concentration was active: 220 nM. With `CC1CCCCC1n1c(=S)[nH]c2ccccc2c1=O` (stereo not given) the max dye-equivalent concentration was “inactive”. For `Cc1oc2cc(O)ccc2c(=O)c1-c1cnn(-c2ccccc2)c1`, the max dye-equivalent concentration was active: 160 nM. For `COc1ccccc1NC(=O)c1ccccc1NS(C)(=O)=O`, the max dye-equivalent concentration was “inactive”. In the case of `Cc1ccc(C(=O)N2CCCC2)cc1S(=O)(=O)Nc1ccccc1`, the max dye-equivalent concentration was inconclusive: 4.7 nM. For `CCC(C(=O)N1CCc2cc(OC)c(OC)cc2C1)c1ccccc1` (stereo not given), the max dye-equivalent concentration was active: 170 nM. For `CCOc1ccc(C(=O)NCc2cccs2)cc1`, the max dye-equivalent concentration was inconclusive: 2.1 nM. For `CC(C(=O)Nc1ccccc1-c1ccccc1)N1CCOCC1` (stereo not given), the max dye-equivalent concentration was “inactive”. With `Cn1c(SCC(=O)N2CCOCC2)nnc1-c1ccccc1` the max dye-equivalent concentration was inconclusive: 1.8 nM. In the case of `CN1CCCC[C@@H]1CCN1c2ccccc2Sc2ccc(S(C)=O)cc21` (stereo not given in full), the max dye-equivalent concentration was inconclusive: 7.8 nM and the outcome was “inactive”. In the case of `CN1C(=O)N(C)C2(CC1(C)C)CC(C)(C)N(C)C(=O)N2C`, the max dye-equivalent concentration was inconclusive: 3.8 nM. For `CCN1C(=O)c2cccc3c(S(=O)(=O)NCc4ccco4)ccc1c23`, the max dye-equivalent concentration was active: 510 nM. In the case of `COc1cccc2[nH]c3c(=O)n(CCN(C)C)cnc3c12`, the max dye-equivalent concentration was inconclusive: 2.3 nM. With `CNCCCC1c2ccccc2C=Cc2ccccc21` the max dye-equivalent concentration was active: 52 nM and the outcome was “inactive”. In the case of `CC(OCC(O)CN(C)CCOc1ccccc1)c1ccc(Cl)cc1` (stereo not given), the max dye-equivalent concentration was inconclusive: 1.3 nM. In the case of `CCCCCCC[N+](CC)(CC)CCCCc1ccc(Cl)cc1`, the max dye-equivalent concentration was “inactive”. With `Cc1ccc2cc(CN(Cc3nnnn3C3CCCCC3)CC3CCCO3)c(=O)[nH]c2c1` (stereo not given) the max dye-equivalent concentration was inconclusive: 1.6 nM. For `Cc1cnc(CNc2nc(-c3ccc(C(=O)N(C)C)cc3)nc3ccccc23)cn1`, the max dye-equivalent concentration was “inactive”. In the case of `O=C(c1cc2cc(Cl)cc(Cl)c2oc1=O)N1CCOCC1`, the max dye-equivalent concentration was inconclusive: 5.4 nM. In the case of `O=c1cnc2cnc(Oc3ccccc3)nc2n1CCc1ccccc1`, the max dye-equivalent concentration was “inactive”. In the case of `CC(=O)Nc1ccc2nc(-c3ccccn3)[nH]c2c1`, the max dye-equivalent concentration was inconclusive: 9.5 nM. With `O=C(O)c1ccc(CSc2ncn[nH]2)cc1` the max dye-equivalent concentration was inconclusive: 1.1 nM. For `CCOC(=O)COc1ccc2c(c1)c(C(=O)OCC)c(C)n2CC`, the max dye-equivalent concentration was “inactive”. For `COc1cccc2cc(C(=O)n3ccc(C)n3)c(=O)oc12`, the max dye-equivalent concentration was inconclusive: 1.2 nM. With `O=C(c1ccccc1)N(Cc1ccc(F)cc1)C1CCS(=O)(=O)C1` (stereo not given) the max dye-equivalent concentration was active: 37 nM. With `CN1CCc2c(sc3c2c(=O)n(-c2ccccc2)c2nnc(SCc4ccc(Cl)cc4)n32)C1` the max dye-equivalent concentration was inconclusive: 5.5 nM. With `CCOC(=O)C1CCCN(C(=O)C2CCCN(S(C)(=O)=O)C2)C1` (stereo not given) the max dye-equivalent concentration was inconclusive: 1.6 nM. In the case of `CCOc1ccc(C(C)=O)cc1N1C(=O)C2C3C=CC(O3)C2C1=O` (stereo not given), the max dye-equivalent concentration was inconclusive: 1.5 nM. For `N#Cc1nc(-c2ccccc2Cl)oc1N1CCCCC1`, the max dye-equivalent concentration was active: 28 nM. For `CCCCOC(=O)Nc1ccc(S(=O)(=O)Nc2nc(C)cc(C)n2)cc1`, the max dye-equivalent concentration was inconclusive: 1.5 nM. For `COc1ccc(-c2nc(C#N)c(N3CCN(c4cccc(Cl)c4)CC3)o2)cc1OC`, the max dye-equivalent concentration was inconclusive: 6.8 nM. With `COc1ccccc1/C=c1\sc2nc(-c3ccco3)nn2c1=O` the max dye-equivalent concentration was active: 23 nM. In the case of `CCOC(=O)c1ccc(N2C(=O)c3n[nH]c(C)c3C2c2ccco2)cc1` (stereo not given), the max dye-equivalent concentration was inconclusive: 1.1 nM.
